Experimental data from article PMC10150200.
These are yes or no findings as the source states them, for the method shown. Binding seen in cells or lysates may run through a third protein. Some entries that bind do so weakly or less than the wild type. Values belong to the substance of their own block, whether it stands above or below them.

Sequences of proteins named here, by UniProt entry; tags and fusion partners are left off.
UniProt O15205: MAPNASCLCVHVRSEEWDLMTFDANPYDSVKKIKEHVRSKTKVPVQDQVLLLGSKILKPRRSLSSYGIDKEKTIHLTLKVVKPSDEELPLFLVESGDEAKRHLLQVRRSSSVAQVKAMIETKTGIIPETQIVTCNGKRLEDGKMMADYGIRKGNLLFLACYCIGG
UniProt Q9Z0N7: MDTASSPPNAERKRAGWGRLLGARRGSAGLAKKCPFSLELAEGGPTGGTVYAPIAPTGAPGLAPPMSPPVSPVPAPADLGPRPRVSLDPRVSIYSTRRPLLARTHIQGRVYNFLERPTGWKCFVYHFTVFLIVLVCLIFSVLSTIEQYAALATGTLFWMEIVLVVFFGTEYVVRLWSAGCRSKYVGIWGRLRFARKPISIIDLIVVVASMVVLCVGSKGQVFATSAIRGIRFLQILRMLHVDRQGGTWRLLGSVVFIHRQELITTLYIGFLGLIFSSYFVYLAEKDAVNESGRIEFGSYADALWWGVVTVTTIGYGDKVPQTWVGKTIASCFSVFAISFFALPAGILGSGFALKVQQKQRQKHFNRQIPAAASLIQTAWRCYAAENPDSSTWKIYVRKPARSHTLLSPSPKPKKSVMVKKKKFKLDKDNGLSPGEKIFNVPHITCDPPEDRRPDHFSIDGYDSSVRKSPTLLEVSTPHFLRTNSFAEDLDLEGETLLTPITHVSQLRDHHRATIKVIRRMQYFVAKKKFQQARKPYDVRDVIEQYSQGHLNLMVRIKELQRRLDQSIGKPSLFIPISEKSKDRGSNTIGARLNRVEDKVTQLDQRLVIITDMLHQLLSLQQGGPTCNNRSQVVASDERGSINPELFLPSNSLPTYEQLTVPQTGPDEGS

How the values were obtained:
[1] = target: Flag-FAT10 expressed in HEK293 cells (UniProt O15205); assay: co-IP; HEK293 cells expressing Flag-FAT10 or Flag-ΔFAT10 and His-KCNQ1; RIPA lysate, Protein A/G magnetic beads, western blot
[2] = target: Flag-FAT10 expressed in H9C2 cells (UniProt O15205); assay: co-IP; H9C2 cells transfected with increasing amounts of Flag-Fat10 plasmid; immunoprecipitation with anti-Ub and anti-FAT10 beads, Kv7.1 detected by western blot
[3] = target: T1, Human leukocyte antigen F-associated transcript 10 (FAT10), endogenous in neonatal rat cardiomyocytes (rat (endogenous in NRCMs)) (UniProt Q921A3); assay: co-IP; endogenous proteins; total proteins extracted with RIPA buffer, 500 ug lysate with antibody 1-2 h at room temperature, Protein A/G magnetic beads at 4°C overnight, western blot
T1 sequence: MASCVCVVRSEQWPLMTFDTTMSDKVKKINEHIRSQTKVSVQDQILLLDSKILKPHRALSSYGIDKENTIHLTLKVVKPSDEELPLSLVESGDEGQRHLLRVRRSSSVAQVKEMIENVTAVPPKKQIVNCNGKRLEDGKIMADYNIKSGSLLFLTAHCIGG

[4] = target: Flag-FAT10 expressed in HEK293 cells (UniProt O15205); assay: co-IP; Fat10-/- HEK293 cells, with Flag-Fat10 plasmid, Si-Ub or Si-con, or IFN-γ/TNF-α; Ub-Kv7.1 and FAT10-Kv7.1 complexes detected
[5] = target: FAT10, endogenous in Fat10+/+ HEK293 cells, induced by IFN-γ/TNF-α (human (endogenous in HEK293)) (UniProt O15205); assay: co-IP; Fat10+/+ HEK293 cells, with or without IFN-γ/TNF-α for the indicated times, Si-Ub or Si-scramble; Ub-Kv7.1 and FAT10-Kv7.1 complexes detected

- binding [1]: binds
Substance: His-KCNQ1 (Kv7.1) expressed in HEK293 cells (from UniProt P51787 1-676)

- binding [2]: binds
Substance: Kv7.1 in H9C2 cells (from UniProt Q9Z0N7 1-669)

- binding [3]: binds
Substance: Kv7.1, the alpha-subunit of IKs, endogenous in neonatal rat cardiomyocytes (from UniProt Q9Z0N7 1-669)

- binding [4]: binds
- binding [5]: binds
Substance: Kv7.1 in Fat10+/+ and Fat10-/- HEK293 cells (from UniProt P51787 1-676)
